# Experimental data from patent US7229806B2, “Microbial conversion of glucose to para-hydroxystyrene” (E. I. du Pont de Nemours and Company, priority 2002, dated 2007).
# Test: Characterization of purified PDC enzymes (pHCA as substrate)
# Type: biochemical
# Details: PDC enzyme
# Procedure: The reaction was initiated by the addition of 1.0 μL of enzyme to a 1.0 mL solution containing 25 mM phosphate buffer, pH 6.0, and 0.2 mM pHCA in a plastic, UV transparent cuvette. The reaction was then followed for 5 minutes spectrophotometrically at 315 nm at room temperature, using a molar extinction coefficient of […] for pHCA disappearance. The specific activity was expressed as micromoles of pHCA degraded per minute per milligram of protein.
# The characteristics of the PDC enzymes isolated from L. plantarum and B. subtilis were obtained using standard spectrometric and electrophoretic techniques and are listed in Table 5.
Molecule,Temperature Optimum,pH Optimum
"L. plantarum: para-hydroxycinnamic acid decarboxylase (pdc1) from L. plantarum, SEQ ID NO:4, expressed in E. coli and purified (protein, listed as Lactobacillus plantarum) MTKTFKTLDDFLGTHFIYTYDNGWEYEWYAKNDHTVDYRIHGGMVAGRWVTDQKADIVMLTEGIYKISWTEPTGTDVALDFMPNEKKLHGTIFFPKWVEEHPEITVTYQNEHIDLMEQSREKYATYPKLVVPEFANITYMGEGQNNEDVISEAPYKEMPNDIRNGKYLIKTTIV",30 °C,5.5–6.0
"B. subtilis: para-hydroxycinnamic acid decarboxylase (pdc2) from B. subtilis, SEQ ID NO:6, expressed in E. coli and purified (protein, listed as Bacillus subtilis) MENFIGSHMIYTYENGWEYEIYIKNDHTIDYRIHSGMVAGRWVRDQEVNIVKLTEGVYKVSWTEPTGTDVSLNFMPNEKRMHGIIFFPKWVHEHPEITVCYQNDHIDLMKESREKYETYPKYVVPEFAEITFLKNEGVDNEEVISKAPYEGMTDDIRAGRL",40–45 °C,5.0
